Experimental findings from patent US20090208927 are described below.

Amino acid sequences for entries named in this document (tags omitted).
UniProt Q04206, whole entry: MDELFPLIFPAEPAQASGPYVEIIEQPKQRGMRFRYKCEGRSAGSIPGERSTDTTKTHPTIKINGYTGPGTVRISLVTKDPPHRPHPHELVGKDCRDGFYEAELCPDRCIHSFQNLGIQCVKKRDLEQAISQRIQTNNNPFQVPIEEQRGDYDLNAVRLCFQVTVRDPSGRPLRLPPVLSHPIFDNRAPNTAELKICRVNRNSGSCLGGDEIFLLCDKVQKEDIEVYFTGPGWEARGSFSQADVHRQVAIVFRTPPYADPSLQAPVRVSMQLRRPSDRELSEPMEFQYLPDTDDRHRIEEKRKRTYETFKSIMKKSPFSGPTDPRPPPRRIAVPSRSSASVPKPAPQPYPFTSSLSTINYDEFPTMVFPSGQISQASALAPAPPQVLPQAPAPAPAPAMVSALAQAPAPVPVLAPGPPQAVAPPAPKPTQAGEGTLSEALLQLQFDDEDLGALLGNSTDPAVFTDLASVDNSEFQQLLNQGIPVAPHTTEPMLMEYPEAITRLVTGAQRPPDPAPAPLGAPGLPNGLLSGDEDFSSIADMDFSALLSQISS

Construct, isoform or probe ends are uncertain for at least one entry. Where cells or extracts were used, other partners may take part. For some assays here: Protein sequences can lack the tags named with them.

For series [1], the target named is NF-kB p65 (Homo sapiens) (UniProt Q04206). The experiment in a line: pull-down. To be noted: anti-p65 protein G bead capture, SA-PE detection; 2 mM MgCl2, poly dI-dC, RT; protein in an extract; label: 5' biotin.
Series [2] addresses T1, NF-kB p50 (Homo sapiens) (UniProt P19838).
T1 sequence (looked up, limits assumed): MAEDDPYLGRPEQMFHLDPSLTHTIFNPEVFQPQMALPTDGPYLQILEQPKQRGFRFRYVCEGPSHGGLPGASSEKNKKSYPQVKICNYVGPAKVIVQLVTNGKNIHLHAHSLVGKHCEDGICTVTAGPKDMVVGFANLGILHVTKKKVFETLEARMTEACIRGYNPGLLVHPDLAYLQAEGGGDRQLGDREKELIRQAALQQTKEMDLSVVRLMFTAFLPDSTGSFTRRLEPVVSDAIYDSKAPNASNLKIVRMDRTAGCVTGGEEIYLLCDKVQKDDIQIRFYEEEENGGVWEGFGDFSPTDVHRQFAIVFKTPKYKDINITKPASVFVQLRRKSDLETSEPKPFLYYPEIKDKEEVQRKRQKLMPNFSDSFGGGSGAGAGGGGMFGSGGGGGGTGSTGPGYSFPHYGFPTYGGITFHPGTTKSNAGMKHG
The experiment in a line: binding assay. To be noted: internal amino-C6 linker in loop [internal amino-C6 linker (n at printed position 21) left out, between positions 20 and 21]; protection from EcoRI digestion, Luminex; 2 mM MgCl2 for binding, 10 mM for digestion; protein in an extract; protein details: endogenous, TNF-treated HeLa nuclear extract; label: 5' biotin; letters built from the parent sequence and the stated change.

As for “TATCCAAGGGGACTTTCCCCTGGCAGGGGAAAGTCCCCTTGGATA [biotin-HPNFKB65 hairpin]”, in series [1], the binding result is “binds”.
As for “TCCAAGGGGATTCCCCAGTGACTGGGGAATCCCCTTGGA [KBREHP hairpin]”, in series [2], the binding result is “binds”.
